Read-outs that look alike come from different tables or passages of the source.
Assays:
[1] = for water content retained at moderate humidity: 10%-80% RH, 4-scan DMSG; for water content of the material: DMSG, at the start of the run, sample as received; for moisture sorbed at 80% RH: material made amorphous by drying to 0% RH
Procedure: Approximately 10 mg samples were used in the balance, samples were run as received. The humidity was set at ambient conditions on the day analysis began. […] The scan rate was 3% RH/step. The mass was measured every two minutes and an equilibrium window of 5 points within 0.001 mg. […] The Visual Basic program dmsgscn2.exe was used to control the data collection and export the information to an Excel spreadsheet.
(§1) The humidity was set at ambient conditions on the day analysis began. […] The mass was measured every two minutes and an equilibrium window of 5 points within 0.001 mg.
as §1

[2] = trituration in aqueous media, or stressed humidity conditions

| moisture sorbed ([1]; first scan, from 70% RH to 90% RH, 25° C.) | solid form conversion [2] | water content retained at moderate humidity [1] | water content of the material [1] | moisture sorbed at 80% RH ([1]; second scan) | water content retained at moderate humidity ([1]; listed as Form m) | water content of the material ([1]; listed as Form m) | moisture content lost ([1]; first scan, from ambient down to about 6% RH) | moisture sorbed at 90% RH ([1]; second scan, crystals at 90% RH) | Structure (SMILES) |
| --- | --- | --- | --- | --- | --- | --- | --- | --- | --- |
| about 2% | – | – | – | – | – | – | – | – | CCC[C@@H]1C[C@@H](C(=O)NC(C(C)Cl)C2OC(SC)C(O)C(O)C2O)N(C)C1 (stereo partly shown) [Form I, clindamycin free base] |
| – | convert to Form I | about 2% | approximately 2% | approximately 2% | – | – | – | – | CCC[C@@H]1C[C@@H](C(=O)NC(C(C)Cl)C2OC(SC)C(O)C(O)C2O)N(C)C1 (stereo partly shown) [Form II, clindamycin free base] |
| – | – | – | – | about 6% | about 4.5% | approximately 4.5% | about 1.5% | about 6% | CCC[C@@H]1C[C@@H](C(=O)NC(C(C)Cl)C2OC(SC)C(O)C(O)C2O)N(C)C1 (stereo partly shown) [Form III, clindamycin free base] |
